PubChem BioAssay AID504786 – Drosophila RNAi Screening Center | 2011
In all, the deposit lists about 21,000 reagents; this is a random part of those that have a named target and a result. 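Primary screen; positive scores mean lost reporter signal, so the sign may be inverted from the usual convention.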 Reagents against one gene are numbered here. A plus sign joins genes that one reagent is predicted to hit. Not all columns of the deposit are shown. Reagent sequences are not shown.

- Purpose: 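Positive regulators of HIF-driven reporter output in Drosophila cells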 (primary screen)
- System: Drosophila S2 cells with a stable HIF luciferase reporter
- Reagent: long dsRNA against Drosophila genes, about 0.2 µg dsRNA per well of a 384-well plate
- Timing: three days of knock-down, then 20 h of DFO before reading
- Challenge: desferrioxamine (DFO) at 100 µM, an iron chelator that mimics hypoxia, for 20 h
- Measurement: 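Firefly luciferase driven by the mouse ldh-a hypoxia-response element, measured after 20 h of 100 µM DFO; z-scores per plate, higher means more signal lost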
- Scale: z-score: higher = stronger loss of HIF reporter signal

gene | dsRNA no. | z-score, replicate 1
glob2 (globin 2) | 1 | -0.3
EndoGI (Endonuclease G inhibitor) | 1 | -0.2
PKD (Protein Kinase D) | 1 | -0.2
IP3K1 (Inositol 1,4,5-triphosphate kinase 1) | 1 | -0.1
CG6550 | 1 | 0.1
vir (virilizer) | 1 | -0.3
CG6763 | 1 | -0.4
colt (congested-like trachea) | 1 | -0.4
Lamtor4 (Late endosomal/lysosomal adaptor, MAPK and MTOR activator 4) | 1 | 0.5
Muc26B (Mucin 26B) | 1 | -0.3
bowl | 1 | -0.3
CG1632 | 1 | -0.4
CG1632 | 2 | -0.3
Smyd4-2 (SET and MYND domain containing, class 4, member 2) | 1 | -0.3
RalGPS (Ral GEF with PH domain and SH3 binding motif) | 1 | -0.2
Ada (Adenosine deaminase) | 1 | 0
CG31681 | 1 | -0.5
Sec15 (Secretory 15) | 1 | 0.3
Or19a (Odorant receptor 19a) | 1 | -0.2
MICAL-like | 1 | -0.4
CG31206 | 1 | -0.6
RpL3 (Ribosomal protein L3) | 1 | 7
CG12766 | 1 | -0.3
Madm (MLF1-adaptor molecule) | 1 | 0.8
aft (adrift) | 1 | 0
CG15172 | 1 | -0.2
Caper | 1 | 0.2
e (ebony) | 1 | -0.1
Acp36DE (Accessory gland protein 36DE) | 1 | -0.2

11 of these entries in another layout.
{"gene":"CG1632","dsRNA no.":2,"z-score, replicate 1":-0.3}
{"gene":"Smyd4-2 (SET and MYND domain containing, class 4, member 2)","dsRNA no.":1,"z-score, replicate 1":-0.3}
{"gene":"RalGPS (Ral GEF with PH domain and SH3 binding motif)","dsRNA no.":1,"z-score, replicate 1":-0.2}
{"gene":"Ada (Adenosine deaminase)","dsRNA no.":1,"z-score, replicate 1":0}
{"gene":"CG31681","dsRNA no.":1,"z-score, replicate 1":-0.5}
{"gene":"Sec15 (Secretory 15)","dsRNA no.":1,"z-score, replicate 1":0.3}
{"gene":"Or19a (Odorant receptor 19a)","dsRNA no.":1,"z-score, replicate 1":-0.2}
{"gene":"MICAL-like","dsRNA no.":1,"z-score, replicate 1":-0.4}
{"gene":"CG31206","dsRNA no.":1,"z-score, replicate 1":-0.6}
{"gene":"RpL3 (Ribosomal protein L3)","dsRNA no.":1,"z-score, replicate 1":7}
{"gene":"CG12766","dsRNA no.":1,"z-score, replicate 1":-0.3}

Continued.
gene | dsRNA no. | z-score, replicate 1
swm (second mitotic wave missing) | 1 | -0.3
Rsod (Related to Sod) | 1 | 0.4
Nagk (N-acetylglucosamine kinase) | 1 | -0.4
OS9 + Hf | 1 | -0.2
CG8119 | 1 | -0.2
Npc2g (Niemann-Pick type C-2g) | 1 | -0.5
Syx4 (Syntaxin 4) | 1 | -0.3
CG30286 | 1 | -0.2
TwdlO (TweedleO) | 1 | 0.1
NAT1 | 1 | -0.5
Eip75B (Ecdysone-induced protein 75B) | 1 | 0
Spt6 | 1 | 4.8
Gprk1 (G protein-coupled receptor kinase 1) | 1 | 0.2
Gprk1 (G protein-coupled receptor kinase 1) | 2 | 0.3
CG12020 | 1 | -0.2
Pcyt2 (Phosphocholine cytidylyltransferase 2) | 1 | -0.3
Trxr2 (Thioredoxin reductase 2) | 1 | -0.3
CG1138 | 1 | -0.4
CG42795 | 1 | -0.1
CG42795 | 2 | -0.2
slmb (supernumerary limbs) | 1 | -0.5
Ppr-Y | 1 | -0.3
CR42548 (pseudo) | 1 | -0.5
CG4945 | 1 | -0.3
CG44836 | 1 | -0.2
gsb (gooseberry) | 1 | -0.4
CG42507 + Trl | 1 | -0.2
CG42507 + Trl | 2 | 1.5
Taf3 (TBP-associated factor 3) | 1 | 0
CG9010 | 1 | -0.3
DNAlig3 (DNA ligase 3) | 1 | -0.3
side (sidestep) | 1 | -0.4
side (sidestep) | 2 | -0.3
side (sidestep) | 3 | -0.4
side (sidestep) | 4 | -0.1
side (sidestep) | 5 | -0.3
CG42512 + CG32573 | 1 | -0.3
CG42512 + CG32573 | 2 | -0.2
Nurf-38 (Nucleosome remodeling factor - 38kD) | 1 | -0.3
CG14357 | 1 | -0.3
CG32808 | 1 | -0.2
Jon74E (Jonah 74E) | 1 | -0.3
eIF3f1 (eukaryotic translation initiation factor 3 subunit f1) | 1 | 5.1
CG15484 | 1 | -0.2
ohgt (ohgata) | 1 | -0.4
Muc68E (Mucin 68E) | 1 | -0.4
CG32137 | 1 | -0.3
CG32137 | 2 | 0
CG8128 | 1 | -0.2
CG17440 | 1 | -0.3
nonC (no-on-and-no-off transient C) | 1 | -0.1
nonC (no-on-and-no-off transient C) | 2 | -0.2
CG17786 | 1 | -0.3
CG16756 | 1 | -0.1
